# Earlier results, collected in patent US8258171B2, “pH-sensitive fluorescent probe” (The University of Tokyo, priority 2006, dated 2012).
# At least one structure is not confirmed: it was looked up by name or label, or the drawing left a doubt.
# Settings: reference used for quantum yield calculation; cited from earlier work
smiles,measurement,value
O=C1OC2(c3ccc(O)cc3Oc3cc(O)ccc32)c2ccccc21 [fluorescein],Φfl of reference standard,^cCalculated by using fluorescein (Φfl = 0.85) as reference
